Experimental data as given in PubChem BioAssay AID2685 (National Center for Advancing Translational Sciences (NCATS), 2010).
Hit rate of the full screen: of about 320,000 compounds, about 2,100 (0.66%) were called active. The shares of active, inactive and inconclusive entries below differ from those in the screen. Calls come from the whole dose curve; as a rule, active = well fitted inhibition curve with a large enough effect in the signal ratio, with a control signal flat (not every such curve was filed as active); inconclusive = small, poorly fitted or top-dose-only effect, or effect the other way, or a change in a side signal; inactive = flat fitted curve, though single readings scatter; the % refers to the signal ratio. A potency beside an inconclusive call is a rough fit, not a confirmed value.
% is set by controls: 0 for no effect and ±100 for the full control effect; potency is the fitted concentration of half-maximal effect.

Test: qHTS Assay for Lipid Storage Modulators in Drosophila S3 Cells
Conditions: BODIPY lipid droplet fluorescence, 18-24 h, cells fed with added oleic acid; lipid storage change, negative = inhibition: at 46.1 µM (top of the series) unless noted
How it was run: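 Drosophila S3 cells got compounds at several concentrations plus oleic acid (400 uM solution). Laser-scanning cytometry with 488 nm excitation read lipid droplets at 500-530 nm and cells at 575-640 nm. Percent activity was relative to 20 uM Triacsin C.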
With `CCc1cc(C(=O)c2ccc(C)cc2)c(NC(=O)CCl)s1` the Potency was inconclusive: 29.1 µM [falling, single point]. In the case of `CCOC(=O)c1c(C)[nH]c(C)c1S(=O)(=O)N(C)CC(=O)NCc1cccc(Br)c1`, the lipid storage change, negative = inhibition is reported as inconclusive: -40.1%. With `O=C(Cc1ccc([N+](=O)[O-])cc1)NCc1ccccc1Cl` the Potency was inconclusive: 20.6 µM [rising, partial curve, poor fit]. For `Nc1ncnc2c1ncn2C1OC(COP(=O)(O)O)C(O)C1O` (centres undefined), the lipid storage change, negative = inhibition was inconclusive: 26.8%. With `Cc1cc(C)c(NC(=O)C(C)N2CCCCCC2)c(C)c1` (centres undefined) the lipid storage change, negative = inhibition was inconclusive: 31%. In the case of `N#Cc1ccc(CSc2nnc(NC(=O)C3CC(=O)N(c4ccc5c(c4)OCCO5)C3)s2)cc1` (centres undefined), the Potency is reported as inconclusive: 1.46 µM [activator, partial curve]. For `Cc1nn(-c2nc3ccccc3[nH]2)c(N)c1-c1ccc(Cl)cc1`, the Potency was inconclusive: 29.1 µM [falling, single point]. For `Cn1c(Cc2cccs2)nnc1SCc1nc2ccccc2[nH]1`, the lipid storage change, negative = inhibition was inconclusive: 50.1%. In the case of `CCc1ccc(OCC(=O)Nc2ccc(S(=O)(=O)Nc3ccccn3)cc2)cc1`, the lipid storage change, negative = inhibition is reported as inconclusive: 37%. With `CCN1CCN(c2cc(C)c3cc(NC(=O)c4cnccn4)ccc3n2)CC1` the Potency was inconclusive: 4.11 µM [activator, single point]. In the case of `CCCOc1ccccc1/C=N/Nc1ccnc(=O)[nH]1`, the lipid storage change, negative = inhibition is reported as inconclusive: 9.81%. For `COC(=O)COc1ccc(S(=O)(=O)N2CCc3ccccc3C2)cc1`, the Potency was active: 7.31 µM. With `COC(=O)c1ccccc1NC(=O)CN1CCN(C23CC4CC(CC(C4)C2)C3)CC1` the lipid storage change, negative = inhibition was inconclusive: 22.8%. For `CCc1nc2ccc(C(=O)N3CCN(c4cccc(C(F)(F)F)c4)CC3)cc2nc1CC`, the lipid storage change, negative = inhibition was inconclusive: -22.5%. With `CCOCCCN1C(=O)C2C(C(=O)Nc3ccc(OCC)cc3)C3C=CC2(O3)C1C(=O)NC1CCCCC1` (centres undefined) the Potency was inconclusive: 18.4 µM [falling, single point]. For `Cc1nn(CC(=O)N2N=C(C(F)F)CC2(O)C(F)F)c(C)c1[N+](=O)[O-]` (centres undefined), the lipid storage change, negative = inhibition was inconclusive: 6.91%. In the case of `Cc1cccc(C(=O)NNC(=O)Nc2ccccc2)c1`, the lipid storage change, negative = inhibition is reported as inconclusive: 51.8%. In the case of `O=C(NS(=O)(=O)c1ccccc1)c1ccccc1F`, the lipid storage change, negative = inhibition is reported as inconclusive: 10.8%. For `COc1ccccc1/C=C(/C#N)C(=O)O`, the lipid storage change, negative = inhibition was inconclusive: 3.45%. For `COc1ccc(S(=O)(=O)N2CCOC2CNC(=O)C(=O)NCc2ccccc2OC)cc1` (centres undefined), the Potency was inconclusive: 29.1 µM [activator, single point]. In the case of `CCCCc1c(C)nc2ccccc2c1SCCC(=O)O`, the lipid storage change, negative = inhibition is reported as inconclusive: -18.9%. With `CCN(CC)CCNC(=O)c1ccc(NC(=O)c2ccc(C(=O)c3ccccc3)cc2)cc1` the Potency was inconclusive: 5.8 µM [falling, single point]. For `O=C(Nc1ccc2c(c1)OCO2)c1ccc(NC2CC2)c([N+](=O)[O-])c1`, the lipid storage change, negative = inhibition was inconclusive: 19.9%. With `O/N=C/c1ccc(-c2cc(Cl)ccc2Cl)o1` the Potency was inconclusive: 1.84 µM [activator, partial curve]. With `O=C(CCl)Nc1c2c(nn1-c1ccccc1)CSC2` the Potency was active: 20.6 µM. With `Cc1ccc(C)c(NC(=S)N2CCC(NC(=O)c3ccco3)CC2)c1` the lipid storage change, negative = inhibition was inconclusive: -72.5%. In the case of `COCc1nc2ccccc2n1Cc1ccccc1C`, the lipid storage change, negative = inhibition is reported as inconclusive: -58.4%. For `CCS(=O)(=O)C1=NSC2=NC(=O)/C(=C\c3ccc(OC(=O)c4ccco4)cc3)C(=N)N21`, the Potency was inconclusive: 6.51 µM [falling, single point]. For `O=C(NCC1CCCO1)c1ccc2c(c1)C(=O)N(C1CCCCC1)C2=O` (centres undefined), the lipid storage change, negative = inhibition was “inactive”. With `COc1ccccc1C(=O)NNC(=O)c1ccc(F)cc1` the Potency was inconclusive: 2.31 µM [activator, partial curve]. For `Cc1ccc(S(=O)(=O)CCC(=O)Nc2cccc(C)c2)cc1`, the lipid storage change, negative = inhibition was inconclusive: -94.2%. For `CCC(C)NCCOCCOc1cc(C)c(Cl)c(C)c1` (centres undefined), the lipid storage change, negative = inhibition was inconclusive: 4.85%. With `COc1ccc(Cc2c(O)nc(SCC(=O)N3CCOCC3)[nH]c2=O)cc1` the lipid storage change, negative = inhibition was inconclusive: 8.9%. In the case of `CCc1ccc(OCCNC(=O)c2ccc(S(=O)(=O)N(C)C)cc2)cc1`, the lipid storage change, negative = inhibition is reported as “inactive”. In the case of `CC(C)[C@H](NC(N)=O)C(=O)Nc1cccc([N+](=O)[O-])c1`, the lipid storage change, negative = inhibition is reported as inconclusive: -24.4%. For `O=C(Oc1c(CN2CCOCC2)cc(Cl)c2cccnc12)c1ccc(F)cc1`, the lipid storage change, negative = inhibition was inconclusive: -89.9%. In the case of `Cn1c(=O)n(C)c2cc([N+](=O)[O-])c(N3CCN(C(=O)c4ccc(Cl)cc4)CC3)cc21`, the lipid storage change, negative = inhibition is reported as inconclusive: 27.9%. In the case of `CCNC(=O)CN(c1ccc(C)cc1)S(=O)(=O)c1ccc(SC)cc1`, the Potency is reported as inconclusive: 1.84 µM [falling, partial curve]. In the case of `Cc1cccc(CCNS(=O)(=O)c2ccc3c(c2)n(C)c(=O)c(=O)n3C)c1`, the Potency is reported as inconclusive: 2.31 µM [activator, single point]. With `COc1cc(OC)cc(OC(=O)C2CCN(C(=O)c3ccc(Cl)cc3)CC2)c1` the lipid storage change, negative = inhibition was inconclusive: -8.67%. With `COc1ccc(-c2noc(CCC(=O)NCc3cccnc3)n2)cc1OC` the lipid storage change, negative = inhibition was “inactive”. In the case of `CC(NC(=O)C(C)(C)C)C(c1cccs1)N1CCOCC1` (centres undefined), the lipid storage change, negative = inhibition is reported as inconclusive: -6.54%. For `COc1ccc(-c2cc(C(F)(F)F)nc(SCC(=O)N(C)Cc3cnn(C)c3C)n2)cc1OC`, the lipid storage change, negative = inhibition was inconclusive: 30.5%. With `Cc1ccc(Cn2nnc3c(=O)[nH]c(C4CCN(S(=O)(=O)c5ccccc5)CC4)nc32)cc1` the lipid storage change, negative = inhibition was “inactive”. For `Cc1cc(C)n2nc(SCC(=O)N3CCN(c4ccc(F)cc4)CC3)nc2n1`, the Potency was inconclusive: 0.116 µM [falling, full curve, poor fit]. For `COC(=O)CCN(C1CCCCC1)S(=O)(=O)c1ccc(S(=O)(=O)NC2CCCCC2)cc1`, the Potency was inconclusive: 0.146 µM [falling, full curve]. In the case of `O=C(Cc1ccccc1)NCCS(=O)c1ccc(Cl)cc1` (centres undefined), the lipid storage change, negative = inhibition is reported as inconclusive: 1.89%. With `COc1cc(OC)c(NC(=O)C2CCCN2C(=O)OCc2ccccc2)cc1Cl` (centres undefined) the Potency was inconclusive: 23.1 µM [activator, partial curve]. With `c1ccc(COn2c(-c3ccccc3)nc3c2CCc2nonc2-3)cc1` the Potency was inconclusive: 0.103 µM [activator, full curve, poor fit].
